Laboratory results taken from PubChem BioAssay AID2685 (National Center for Advancing Translational Sciences (NCATS), 2010).
The other results are listed elsewhere or left out. Further columns of the screen follow, without active or inactive calls. Most of these compounds were active or inconclusive in the main read-out, so they are no random draw. Words in brackets tell the shape of the fitted curve; partial curves, single points and poor fits give uncertain potencies.

Assay: qHTS Assay for Lipid Storage Modulators in Drosophila S3 Cells;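 for cell number change: cells counted by Cell Tracker Red CMTPX staining in the red channel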
Conditions: BODIPY lipid droplet fluorescence, 18-24 h; for cell number change: measured here: cell count max response, cells fed with added oleic acid
In short: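 Drosophila S3 cells loaded with oleic acid (400 uM, as added) and compounds at several concentrations; lipid droplets imaged by 488-nm laser-scanning cytometry, 500–530 nm intensity and object ratio to cell channel. Percent activity normalized to 20 uM Triacsin C.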

[1] = measured here: lipid fluorescence (Fed channel) AC50, cells fed with added oleic acid
[2] = measured here: cell number channel AC50, cells fed with added oleic acid

Row | Compound | cell number change [%] | AC50 [1] | AC50 [2]
1 | Cc1csc(NC(=O)CCn2c(=O)oc3ccc(Cl)cc32)n1 | -34.8 |  | 
2 | Cc1ccccc1CSc1[nH]c(=O)ncc1C | -3.13 | 0.058 µM [falling, full curve, poor fit] | 
3 | Cc1cccc(C(=O)NCCC(=O)Nc2ccc(C#N)cc2)c1 | -1.32 |  | 
4 | CCC(SC1=Nc2ccccc2C2=NC(CC(C)C)C(=O)N12)C(=O)Nc1ccc2c(c1)OCO2 (stereo unspecified) | -20.1 | 4.11 µM [falling, single point] | 
5 | O=c1[nH]c(/C=C/c2ccc3c(c2)OCO3)c([N+](=O)[O-])c(=O)[nH]1 | -18.8 | 0.00461 µM [falling, full curve, poor fit] | 
6 | CC(C)(C)C1=NN(C(=O)c2ccccc2)C(O)(C(C)(C)C)C1 (stereo unspecified) | -39.1 | 18.4 µM [falling, single point] | 9.2 µM [falling, partial curve]
7 | CCOC(=O)CCP(=O)(O)C(O)c1ccc(OC)cc1 (stereo unspecified) | -0.972 | 6.51 µM [falling, partial curve, poor fit] | 
8 | COc1ccc(C2C=C(c3ccc(C)c(C)c3)Nc3ncnn32)c(OC)c1OC (stereo unspecified) | 0.127 | 32.6 µM [falling, single point] | 
9 | CN(C)c1ccc(/C=C(\NC(=O)c2ccccc2)C(=O)NCc2cccnc2)cc1 | 6.67 |  | 
10 | C#CCOCCOCCOCCNc1nc(N2CCN(C(=O)Cn3cc(CCCN=C(N)N)nn3)CC2)nc(N2CCN(C(=O)[C@H](CCCCN)n3cc(CCCC)nn3)CC2)n1 | -24.8 | 20.6 µM [rising, single point] | 0.116 µM [falling, full curve, poor fit]
11 | CCOC(=O)C1CCCN(C(=O)c2cc(Cl)ccc2Cl)C1 (stereo unspecified) |  | 0.58 µM [falling, single point] | 1.03 µM [falling, single point]
12 | O=C(NCCc1ccccc1)c1ccc(NC(=O)c2cccnc2)cc1 | 22.8 | 29.1 µM [falling, single point] | 
13 | CC(=O)N1c2ccc(S(=O)(=O)N3CCCC(C(=O)N4CCC(C)CC4)C3)cc2CC1C (stereo unspecified) | -5.39 | 0.58 µM [rising, single point] | 
14 | CC(=O)Nc1ccc(SCC(=O)OCC(=O)NC(=O)NC2CCCC2)cc1 | -4.05 | 2.06 µM [falling, single point] | 
15 | Cc1cc(C(=O)NNc2c(Cl)cccc2Cl)n(C(C)(C)C)n1 | 37.5 | 0.58 µM [rising, full curve] | 0.366 µM [rising, full curve, poor fit]
16 | Cc1cc2cc(CN(Cc3ccco3)C(=S)NCC3CCCO3)c(=O)[nH]c2cc1C (stereo unspecified) | -9.31 | 6.51 µM [rising, single point] | 2.31 µM [rising, partial curve]
17 | COc1ccccc1CC(NC(C)=O)C(=O)NC1CCN(C(=O)Nc2ccccc2C)CC1 (stereo unspecified) | 32.1 |  | 16.4 µM [rising, partial curve, poor fit]
18 | COc1cc(/C=C(/C#N)c2ccccc2)ccc1Oc1ccc([N+](=O)[O-])cn1 | -0.78 | 0.58 µM [rising, single point] | 
19 | Cc1nn(CC(=O)Nc2cccc(C(F)(F)F)c2)c(=O)c2cccn12 | 12.4 | 20.6 µM [falling, single point] | 
20 | CCC(=O)c1ccc(OCC(O)CN2CCc3ccccc3C2)cc1 (stereo unspecified) | 6.2 | 0.58 µM [falling, single point] | 

Row | Compound | cell number change [%] | AC50 [1] | AC50 [2]
21 | CN1CCN(C(=O)c2cc3c(n(-c4ccccc4)c2=O)CC(C)(C)CC3=O)CC1 | 1.7 | 0.461 µM [rising, full curve] | 
22 | Cc1ccc2c(CC(=O)OCc3nc(N)nc(Nc4ccccc4C)n3)coc2c1 | -29.6 | 0.00461 µM [rising, full curve] | 
23 | O=C(C1=C[C@H](c2coc3ccccc3c2=O)C[C@H](OCc2ccc(CO)cc2)O1)N1CCN(Cc2ccccc2)CC1 | -14.6 | 2.31 µM [falling, partial curve, poor fit] | 
24 | Cn1c(SCC(=O)Nc2ccc(F)cc2F)nnc1-c1cccnc1 |  |  | 6.51 µM [rising, single point]
25 | CN(C)CCCNc1ccc(S(N)(=O)=O)cc1[N+](=O)[O-] | 16.7 |  | 6.51 µM [rising, single point]
26 | COc1ccccc1-n1c(SCC(=O)Nc2ccc(C)cc2)nc(O)cc1=O | 7.97 | 2.59 µM [rising, single point] | 
27 | Cc1cc2c(NC(=O)Nc3ccc(C(F)(F)F)cc3)cccc2nn1 | 5.9 | 3.66 µM [rising, partial curve, poor fit] | 
28 | CC(=O)OCCNc1cc(Sc2nc3ccccc3[nH]2)c2nonc2c1[N+](=O)[O-] | -38.7 | 4.11 µM [falling, full curve] | 4.11 µM [falling, full curve]
29 | O=C(NCCN=C1NS(=O)(=O)c2ccccc21)c1ccco1 | -84.8 | 1.84 µM [falling, partial curve] | 14.6 µM [falling, partial curve]
30 | O=C(CN1CCCC1c1ccc2c(c1)OCCO2)NC(=O)Nc1ccccc1 (stereo unspecified) | -6.24 | 0.58 µM [falling, single point] | 
31 | CCS(=O)(=O)c1ccc2oc(SCC(=O)NCCc3ccc(OC)cc3)nc2c1 | 2.19 |  | 7.31 µM [falling, partial curve, poor fit]
32 | CCCC(C)C(=O)Nc1cc([N+](=O)[O-])ccc1Cl (stereo unspecified) |  | 1.46 µM [rising, partial curve] | 3.26 µM [rising, partial curve]
33 | CC(C)CNC(=O)c1cccc(NC(=O)COc2ccc([N+](=O)[O-])cc2)c1 | 1.08 | 1.46 µM [rising, partial curve] | 
34 | Cc1cc(C)cc(N(CC(=O)N2CCC(C)CC2)S(=O)(=O)c2ccccc2)c1 | 70.1 |  | 25.9 µM [rising, single point]
35 | Nc1c(C(O)(C(F)(F)F)C(F)(F)F)cc(C(O)(C(F)(F)F)C(F)(F)F)c2ccccc12 | -51.3 | 9.2 µM [falling, partial curve] | 7.31 µM [falling, partial curve]
36 | Cc1nc(-c2ccc(F)cc2)c(CC(=O)Nc2cc(S(=O)(=O)N3CCCCC3)ccc2C)s1 | -10.1 |  | 
37 | Cc1sc(N)nc1C12CC3CC(CC(C3)C1)C2 | -42.4 |  | 14.6 µM [falling, partial curve, poor fit]
38 | CC(C)[C@H](NC(=O)OC(C)(C)C)c1nnc(S(=O)(=O)Cc2c(F)cccc2Cl)o1 | -90.9 | 23.1 µM [falling, single point] | 16.4 µM [falling, partial curve]
39 | CCCOP(=O)(c1ccc(N(C)C)cc1)C(O)c1cccnc1 (stereo unspecified) | 52.1 | 29.1 µM [rising, single point] | 
40 | CC1(C)OC(C)(C)/C(=C/Nc2ccccc2)C1=O | 23.2 | 0.517 µM [rising, partial curve] | 

Row | Compound | cell number change [%] | AC50 [1] | AC50 [2]
41 | CN1CCCC1CCNc1ccc2oc3ccccc3c(=O)c2c1 (stereo unspecified) | 18.1 | 18.4 µM [rising, partial curve] | 
42 | CCN(CC(=O)Nc1ccc2c(c1)OCCO2)C(=O)CC1CCCC1 | 33.5 |  | 32.6 µM [rising, single point]
43 | Cc1cc(OCCn2cc(/C(N)=N/O)c3ccccc32)ccc1Cl | -21 | 16.4 µM [falling, single point] | 
44 | COc1ccc(S(=O)(=O)/N=C2\C=C(Nc3ccc(O)cc3)C(=O)c3ccccc32)cc1 | 13.5 | 1.46 µM [falling, full curve] | 
45 | Cc1ccc(OCC(=O)Oc2c(C)cccc2C)cc1C | -13.2 |  | 
46 | Cc1cc2nc(-c3ccc(SCc4ccccn4)nc3)[nH]c2cc1C |  |  | 0.82 µM [rising, full curve, poor fit]
47 | Cc1csc(CNc2ncnc3ccc(-c4cccc(Cl)c4)cc23)c1 | 20.5 |  | 
48 | Cc1oc(-c2ccccc2)nc1CS(=O)CC(=O)NC1CCCC1 (stereo unspecified) | -9.22 | 32.6 µM [rising, single point] | 
49 | O=C(CSC1=NCCS1)Nc1cccc2ccccc12 |  |  | 0.0291 µM [rising, full curve, poor fit]
50 | Cc1ccc(S(=O)(=O)N2CCCCC2)cc1NC(=O)c1ccccn1 | 16.4 | 4.61 µM [rising, single point] | 
51 | O=C(O)CCCCNS(=O)(=O)/C=C/c1ccccc1 | -45.2 |  | 
52 | O=c1c2cc(NC(=S)NCCCN3CCC(Cc4ccccc4)CC3)ccc2nc2n1CCCCC2 | -1.94 | 0.146 µM [falling, full curve, poor fit] | 
53 | CCOC(=O)C1=C(CSc2nc(-c3ccccc3)ccc2C#N)OC(N)=C(C#N)C1c1cccnc1 (stereo unspecified) |  |  | 0.92 µM [rising, full curve]
54 | CC(NCCS(=O)(=O)c1ccc(Cl)cc1)c1cccc(Cl)c1 (stereo unspecified) | 20.4 |  | 
55 | CCOC(=O)c1c(C)[nH]c(C(=O)OCC(=O)N2CCN(S(=O)(=O)c3ccccc3)CC2)c1C | 72.8 | 20.6 µM [rising, partial curve] | 2.59 µM [rising, full curve]
56 | O=C(Nc1nc2n(n1)C(c1ccc(Cl)cc1)CC(c1ccc(Cl)cc1)N2)c1ccco1 (stereo unspecified) |  | 0.731 µM [rising, single point] | 
57 | O=C(CN(CCc1ccccc1)C(=O)c1csnn1)NC1CCCC1 | -5.68 | 0.82 µM [falling, full curve, poor fit] | 
58 | O=C(OCC(=O)N1CCCC1)c1cccc(Br)c1 | -9.91 |  | 

Eleven entries from above, as a markdown table:

| Row | Compound | cell number change [%] | AC50 [1] | AC50 [2] |
| --- | --- | --- | --- | --- |
| 42 | CCN(CC(=O)Nc1ccc2c(c1)OCCO2)C(=O)CC1CCCC1 | 33.5 |  | 32.6 µM [rising, single point] |
| 43 | Cc1cc(OCCn2cc(/C(N)=N/O)c3ccccc32)ccc1Cl | -21 | 16.4 µM [falling, single point] |  |
| 48 | Cc1oc(-c2ccccc2)nc1CS(=O)CC(=O)NC1CCCC1 (stereo unspecified) | -9.22 | 32.6 µM [rising, single point] |  |
| 49 | O=C(CSC1=NCCS1)Nc1cccc2ccccc12 |  |  | 0.0291 µM [rising, full curve, poor fit] |
| 50 | Cc1ccc(S(=O)(=O)N2CCCCC2)cc1NC(=O)c1ccccn1 | 16.4 | 4.61 µM [rising, single point] |  |
| 51 | O=C(O)CCCCNS(=O)(=O)/C=C/c1ccccc1 | -45.2 |  |  |
| 52 | O=c1c2cc(NC(=S)NCCCN3CCC(Cc4ccccc4)CC3)ccc2nc2n1CCCCC2 | -1.94 | 0.146 µM [falling, full curve, poor fit] |  |
| 54 | CC(NCCS(=O)(=O)c1ccc(Cl)cc1)c1cccc(Cl)c1 (stereo unspecified) | 20.4 |  |  |
| 55 | CCOC(=O)c1c(C)[nH]c(C(=O)OCC(=O)N2CCN(S(=O)(=O)c3ccccc3)CC2)c1C | 72.8 | 20.6 µM [rising, partial curve] | 2.59 µM [rising, full curve] |
| 57 | O=C(CN(CCc1ccccc1)C(=O)c1csnn1)NC1CCCC1 | -5.68 | 0.82 µM [falling, full curve, poor fit] |  |
| 58 | O=C(OCC(=O)N1CCCC1)c1cccc(Br)c1 | -9.91 |  |  |
